Test results: US20080241061A1, “METHODS OF IMAGING EMPLOYING CHELATING AGENTS” (priority 2006, published 2008)

Experiment: ^99mTc radiolabeling efficiency of lipophilic chelates incorporated into perfluorocarbon nanoparticles or as free lipid-chelate
From the text: Several lipophilic chelates were synthesized and evaluated for radiolabeling perfluorocarbon nanoparticles for comparison. Briefly, these lipid-chelates included 6-hydrazinonicotinic-phosphatidylethanolamine (HYNIC-PE), diethylenetriamene pentaacetate-caproyl-phosphatidylethanolamine (DTPA-cap-PE), Gly-Gly-Gly-caproyl-phosphatidyl-ethanolamine (TriGly-cap-PE), Gly-Gly-Gly-Asp-caproyl-phosphatidyl-ethanolamine (triGly-Asp-cap-PE), N2S2-phosphatidylethanolamine (N2S2-PE), and N2S2-NH2-phosphatidylethanolamine (N2S2-NH2-PE). Stannous tartrate reductions of ^99mTc with a tricineintermediate shuttle step were used to minimize the formation of ^99mTcO2 during metalation. ^99mTc was coupled to the bis-pyridyl-lysine through a tricarbonyl precursor as described below. […]
Sodium borohydride NaBH4 (0.53 M), sodium carbonate (0.14 M), and sodium tartrate (0.24 M) in 660 μl deionized water were admixed in a glass serum vial. […] After equilibration to atmospheric pressure, the reaction mixture was adjusted to pH 7 with a 1:3 mixture of 0.1 M phosphate buffer (pH 7.4): 1 M HCl and purity was determined by HPLC as described below. […] The nanoparticle radiolabeling yield was greater than 90% as determined by TLC developed with 0.1M sodium acetate pH 5.18:methanol:water (20:100:200), which achieved approximately 6 atoms of ^99mTc per nanoparticle.

Substance | Yield achieved, Free (^99mTc radiolabeling efficiency) [%]
N2S2-NH2-phosphatidylethanolamine [N2S2-amino-PE] | 67
N2S2-phosphatidylethanolamine [N2S2-PE] | 93
